Experimental data: PubChem BioAssay AID504791 (Drosophila RNAi Screening Center, 2011)
Test: 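Factors in Argonaute-based small RNA production and activity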 (primary screen). Cells: Drosophila S2-derived reporter cells. Knock-down reagent: long dsRNA against Drosophila genes, about 150-250 ng dsRNA per well (siRNA assay); about 80-120 ng (miRNA assay). Time to read-out: about 5 days (siRNA assay); about 4 days (miRNA assay). Conditions: copper sulfate induction of reporters: 25 µM (siRNA assay); 200 mM stated (miRNA assay), 1-2 days before reading. Measurement: 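Per-well ratio of Renilla over firefly light, expressed relative to that plate's average ratio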. Units: stable assay Renilla, run 1 in luminescence; stable assay firefly, run 1 in luminescence. Call rule: 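a well was a first-pass pick when its plate-scaled ratio rose above 1.5 (siRNA assay) or 1.6 (miRNA assay), or dropped below 0.6; a gene counted only if two separate dsRNAs agreed on retest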.
The deposit covers about 23,000 reagents; this is a random part of those that have a named target and a result. Over the whole deposit, 199 (0.86%) were called active. 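Plate-scaled ratios behind the calls are not deposited; printed light signals are raw; many rows marked increased or decreased are still called inactive.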 Names joined by + are all predicted targets of the reagent. Not stated in the record: the direction of the score.

With knock-down of CG13287 [DRSC09961], the record shows stable assay Renilla, run 1 = 4296; stable assay firefly, run 1 = 3.55e5; inactive.
For Abl (Abl tyrosine kinase) [DRSC09661], the entry reads stable assay Renilla, run 1 = 7170; stable assay firefly, run 1 = 3.40e5; inactive.
Against Abl (Abl tyrosine kinase) [DRSC23306], the values are miRNA reporter change reporter ratio raised past the hit cutoff; stable assay Renilla, run 1 = 4834; stable assay firefly, run 1 = 2.55e5; inactive.
Silencing of Sh (Shaker) [DRSC19214] gave: stable assay Renilla, run 1 = 3151; stable assay firefly, run 1 = 2.14e5; inactive.
Sh (Shaker) [DRSC19220] showed stable assay Renilla, run 1 = 6371; stable assay firefly, run 1 = 4.33e5; inactive.
Sh (Shaker) [DRSC19785] scored stable assay Renilla, run 1 = 5551; stable assay firefly, run 1 = 6.57e5; inactive.
Silencing of Sh (Shaker) [DRSC20055] came out at: stable assay Renilla, run 1 = 5528; stable assay firefly, run 1 = 5.36e5; inactive.
Sh (Shaker) [DRSC22567] showed stable assay Renilla, run 1 = 5111; stable assay firefly, run 1 = 3.61e5; inactive.

Reprinted from the listing for reference:
Sh (Shaker) [DRSC19214] — stable assay Renilla, run 1: 3151; stable assay firefly, run 1: 2.14e5; call: inactive
Sh (Shaker) [DRSC19220] — stable assay Renilla, run 1: 6371; stable assay firefly, run 1: 4.33e5; call: inactive

More records follow.
For CG42812 + CG42811 [DRSC15367] the deposit lists stable assay Renilla, run 1 = 6166; stable assay firefly, run 1 = 2.96e5; inactive.
Against CG42812 + CG42811 [DRSC15368], the values are stable assay Renilla, run 1 = 6031; stable assay firefly, run 1 = 3.09e5; inactive.
sgll (sugarlethal) [DRSC15442] scored stable assay Renilla, run 1 = 7627; stable assay firefly, run 1 = 4.87e5; inactive.
With knock-down of CG12310 [DRSC09878], the screen gave stable assay Renilla, run 1 = 8011; stable assay firefly, run 1 = 3.58e5; inactive.
